Reference: paper PMC8583962
No constants are given. Whether binding was seen depends on the method and setting. Binding seen in cells or lysates may run through a third protein.

Target: T1, NAA10 (endogenous) (human (endogenous in HEK293, HeLa, HAP1)), P41227
T1 chain: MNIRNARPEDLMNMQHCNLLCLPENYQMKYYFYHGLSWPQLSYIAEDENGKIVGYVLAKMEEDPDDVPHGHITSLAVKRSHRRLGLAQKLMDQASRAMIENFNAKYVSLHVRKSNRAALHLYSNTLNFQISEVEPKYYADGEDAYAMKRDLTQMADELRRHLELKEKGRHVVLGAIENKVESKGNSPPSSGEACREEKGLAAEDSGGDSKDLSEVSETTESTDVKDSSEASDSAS
Assay: co-IP; IP of endogenous NAA10 with an anti-NAA10 antibody from HAP1-WT and HAP1-FIH-KO lysates on Dynabeads, washed three times in IPH lysis buffer; rabbit IgG as control IP; immunoblot for NAA15 and FIH
Details: remark: other sources report otherwise

B1: factor inhibiting HIF-1α (FIH), Q9NWT6 1-349 (enzyme)
chain: MAATAAEAVASGSGEPREEAGALGPAWDESQLRSYSFPTRPIPRLSQSDPRAEELIENEEPVVLTDTNLVYPALKWDLEYLQENIGNGDFSVYSASTHKFLYYDEKKMANFQNFKPRSNREEMKFHEFVEKLQDIQQRGGEERLYLQQTLNDTVGRKIVMDFLGFNWNWINKQQGKRGWGQLTSNLLLIGMEGNVTPAHYDEQQNFFAQIKGYKRCILFPPDQFECLYPYPVHHPCDRQSQVDFDNPDYERFPNFQNVVGYETVVGPGDVLYIPMYWWHHIESLLNGGITITVNFWYKGAPTPKRIEYPLKAHQKVAIMRNIEKMLGEALGNPQEVGPLLNTMIKGRYN
binding: no binding
